For data set [1], the target named is SP1 (UniProt P08047). The data set can be described thus: BLI. To be noted: BLI: PBS, room temperature, oligos annealed in 10 mM Tris-HCl pH 7.5 +/- 100 mM KCl, commercial protein, residues 1-785, label: 5' biotin (BLI), single-stranded DNA, letters put together from the description.
The target of data set [2] is SP1 (UniProt P08047). The data set can be described thus: EMSA. To be noted: EMSA: 10 mM HEPES-NaOH pH 7.3, 50 mM KCl, 5 mM MgCl2, 0.5 mM DTT, 5% glycerol, 0.5 mg/mL BSA, 1 h, gel at 4 C, commercial protein, residues 1-785.

Chains of the proteins cited; added tags and fusions are not shown.
UniProt P08047, whole entry: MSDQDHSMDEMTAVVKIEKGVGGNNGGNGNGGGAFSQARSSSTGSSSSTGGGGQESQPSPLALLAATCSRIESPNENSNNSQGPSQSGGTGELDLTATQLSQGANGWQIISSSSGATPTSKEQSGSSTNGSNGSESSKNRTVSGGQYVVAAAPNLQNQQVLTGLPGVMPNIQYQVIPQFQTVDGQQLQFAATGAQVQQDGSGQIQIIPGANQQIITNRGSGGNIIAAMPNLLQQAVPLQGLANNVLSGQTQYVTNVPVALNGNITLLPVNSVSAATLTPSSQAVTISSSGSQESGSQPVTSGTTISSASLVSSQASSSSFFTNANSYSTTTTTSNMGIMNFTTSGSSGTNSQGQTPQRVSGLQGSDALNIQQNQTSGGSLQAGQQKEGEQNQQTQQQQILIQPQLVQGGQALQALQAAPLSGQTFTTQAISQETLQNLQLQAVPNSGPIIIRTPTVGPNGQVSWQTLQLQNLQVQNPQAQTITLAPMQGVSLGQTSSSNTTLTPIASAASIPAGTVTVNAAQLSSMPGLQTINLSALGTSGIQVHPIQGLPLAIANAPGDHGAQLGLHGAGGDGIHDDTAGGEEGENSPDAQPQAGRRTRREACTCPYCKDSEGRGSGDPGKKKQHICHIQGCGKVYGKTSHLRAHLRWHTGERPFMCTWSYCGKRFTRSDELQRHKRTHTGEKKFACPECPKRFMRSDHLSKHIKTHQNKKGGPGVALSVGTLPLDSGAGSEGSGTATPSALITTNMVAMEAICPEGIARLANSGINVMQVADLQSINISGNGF

A weaker result is weaker than the reference pair of the same experiment. The exact form of at least one protein or probe is not confirmed. At least one verdict rests on a figure or table, not on a statement of the authors.

With “AAAGGCCGGGGGCGGGGAGGCAAA [GI/IVA 24-nt, annealed with KCl]”, the binding result with SP1 [1] (annealed in KCl, response slope 0.12 vs 0.22 for WT (KCl)) was “binds more weakly”; with SP1 [2] (substantially reduced, Kd only in Fig 2C, label: 5' biotin (BLI), single-stranded DNA, letters put together from the description), “binds more weakly”.
On to “AGAGACCGAGAGCAGAGAGACGAG [Negative control (NC) 24-nt]”, for which, in the data set with SP1 [2] (substantially reduced, some non-specific binding, single-stranded DNA, letters put together from the description), the binding result is recorded as “binds more weakly”.
As to “AGAGACCGGGGGCGGGGAGACGAG [PCNG4, annealed without KCl]”, in the data set with SP1 [2] (annealed without KCl, bound poorly, single-stranded DNA, letters put together from the description), the binding result was “binds more weakly”.
In the case of “CAGGAAACCCCTGGGGCGTACGGGTGGCCCCGGGGGGGCCGGGGGCGGGGAGGCGGGCGGCCGGCACCGCCCCGGCCGACAAAAGTCCCT (double strand) [dsBcl3 WT 90 bp]”, the binding result with SP1 [2] (SP1:G4 complexes and condensates, well signal reduced by 1,6-hexanediol) is reported as “binds”.
As for “GGGGGCCGGGGGCGGGGAGGCGGG [Bcl3 WT 24-nt, annealed without KCl]”, in the data set with SP1 [1] (annealed without KCl, local 1:1 fit at 457 nM SP1, range given for all no-KCl oligos), the binding result is recorded as “binds more weakly”. The Kd in the data set with SP1 [2] (annealed without KCl, label: 5' biotin (BLI), single-stranded DNA, letters put together from the description) stood at 148 nM.

The values are drawn from paper PMC12397910.
